In assay [1] the target is C/EBPα (pig (endogenous in porcine pre-adipocytes)) (UniProt F1RNW6). The assay is described as follows: co-IP.
The target of assay [2] is FoxO1 (pig (endogenous in porcine pre-adipocytes)) (UniProt A4L7N3). The assay is described as follows: co-IP.

By UniProt entry, the sequences of proteins in these tests, tags left out.
UniProt F1RNW6: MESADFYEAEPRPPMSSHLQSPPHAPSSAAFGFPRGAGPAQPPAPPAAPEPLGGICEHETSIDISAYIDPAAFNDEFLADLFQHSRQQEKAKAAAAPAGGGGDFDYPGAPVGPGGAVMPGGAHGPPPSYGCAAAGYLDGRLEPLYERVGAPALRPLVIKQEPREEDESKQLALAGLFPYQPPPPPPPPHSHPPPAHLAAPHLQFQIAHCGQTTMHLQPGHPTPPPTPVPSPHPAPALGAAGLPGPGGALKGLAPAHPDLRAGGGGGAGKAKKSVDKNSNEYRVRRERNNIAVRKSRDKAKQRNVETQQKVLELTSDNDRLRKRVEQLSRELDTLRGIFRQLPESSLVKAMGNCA
UniProt A4L7N3: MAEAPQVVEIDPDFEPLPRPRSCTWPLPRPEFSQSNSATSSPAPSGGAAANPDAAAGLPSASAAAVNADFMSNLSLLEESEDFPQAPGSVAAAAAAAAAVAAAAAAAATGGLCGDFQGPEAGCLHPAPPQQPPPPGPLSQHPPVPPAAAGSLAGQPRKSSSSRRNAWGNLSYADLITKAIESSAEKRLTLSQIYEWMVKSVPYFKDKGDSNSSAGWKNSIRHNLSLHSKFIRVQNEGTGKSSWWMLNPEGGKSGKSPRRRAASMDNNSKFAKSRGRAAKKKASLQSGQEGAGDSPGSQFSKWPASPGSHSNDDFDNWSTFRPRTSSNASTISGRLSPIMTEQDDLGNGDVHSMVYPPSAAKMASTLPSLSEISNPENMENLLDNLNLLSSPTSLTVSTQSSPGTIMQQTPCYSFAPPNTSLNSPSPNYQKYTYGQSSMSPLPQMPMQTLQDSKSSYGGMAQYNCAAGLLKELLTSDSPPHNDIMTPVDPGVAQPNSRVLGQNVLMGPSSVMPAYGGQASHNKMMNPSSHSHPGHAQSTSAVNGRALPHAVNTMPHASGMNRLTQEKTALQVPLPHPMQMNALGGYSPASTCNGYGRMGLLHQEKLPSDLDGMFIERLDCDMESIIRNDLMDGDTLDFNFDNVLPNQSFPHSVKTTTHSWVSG

No constants are given. Whether binding was seen depends on the method and setting. In cells and extracts the contact can be indirect. Some results given as binding are weak or reduced against the parent protein; the word gives no strength.

Experimental findings from paper doi:10.1101/2021.11.11.468339 are described below.

As to FoxO1 (from UniProt A4L7N3 1-662), in assay [1], the binding result was “binds”. On to C/EBPα (from UniProt F1RNW6 1-354), for which the binding entry in assay [2] is “binds”.
